Experimental data: patent publication US4209439A, “Stabilization of vinyl resins” (priority 1977, dated 1980)

Key:
[1] = static thermostability of polyvinyl chloride, oven at 210° C.; parameters: key: The symbol "B" indicates "burnt"; the index "+" signifies that the colour is disposed half-way between the lower unit and the upper half-unit; the index "-" signifies that the colour is between the lower half-unit and the upper unit; >2 means that it is between 2 and 2^+
[2] = static thermostability of polyvinyl chloride, oven at […] C.; parameters: key: The symbol "B" indicates "burnt"; the index "+" signifies that the colour is disposed half-way between the lower unit and the upper half-unit; the index "-" signifies that the colour is between the lower half-unit and the upper unit; >2 means that it is between 2 and 2^+
[3] = photostabilising, flexible vinyl chloride-vinyl acetate copolymer (Example 6); conditions: 0.3 part

SMILES: c1ccc(-c2cc3ccccc3[nH]2)cc1 [2-phenyl indole, reference compound]
- colour ([1]; 0.1 p.c.r., 0 min): 2 Gardner
- colour ([1]; 0.1 p.c.r., 2 min): 2 Gardner
- colour ([1]; 0.1 p.c.r., 4 min): 2 Gardner
- colour ([1]; 0.1 p.c.r., 6 min): 3 Gardner
- colour ([1]; 0.1 p.c.r., 8 min): 4 Gardner
- colour ([1]; 0.1 p.c.r., 10 min): 11 Gardner
- colour ([1]; 0.1 p.c.r., 12 min): 13 Gardner
- colour ([1]; 0.2 p.c.r., 0 min): 1 Gardner
- colour ([1]; 0.2 p.c.r., 2 min): 1 Gardner
- colour ([1]; 0.2 p.c.r., 4 min): 1 Gardner
- colour ([1]; 0.2 p.c.r., 6 min): 2 Gardner
- colour ([1]; 0.2 p.c.r., 8 min): 3 Gardner and 2 Gardner
- colour ([1]; 0.2 p.c.r., 10 min): 4 Gardner and 5 Gardner
- colour ([1]; 0.2 p.c.r., 12 min): 12 Gardner and 9 Gardner
- colour ([1]; 0.2 p.c.r., 14 min): 15 Gardner
- colour ([1]; 0.2 p.c.r., time printed 1 min): 1 Gardner
- colour ([1]; Ex. 10, 0.3 part, 0 min): 1 Gardner
- colour ([1]; Ex. 10, 0.3 part, 3 min): 2 Gardner and 1 Gardner
- colour ([1]; Ex. 10, 0.3 part, 6 min): 2 Gardner
- colour ([1]; Ex. 10, 0.3 part, 15 min): 16 Gardner and 17 Gardner and 14 Gardner
- colour ([1]; Ex. 10, 0.3 part, 18 min): B
- colour ([1]; x = 0.1 to 0.3 p.c.r., 0 min): 1 Gardner
- colour ([1]; x = 0.1 to 0.3 p.c.r., 3 min): 1 Gardner
- colour ([1]; x = 0.1 to 0.3 p.c.r., 6 min): 2 Gardner
- colour ([1]; x = 0.1 to 0.3 p.c.r., 9 min): 4 Gardner
- colour ([1]; x = 0.1 to 0.3 p.c.r., 12 min): 11 Gardner and 10 Gardner
- colour ([1]; x = 0.1 to 0.3 p.c.r., 15 min): 14 Gardner
- colour ([2]; 0.3 part, 0 min): 1 Gardner
- colour ([2]; 0.3 part, 6 min): 1 Gardner
- colour ([2]; 0.3 part, 30 min): 14 Gardner
- colour ([2]; 0.3 part, 33 min): 14 Gardner
- colour ([2]; equimolecular, 1.55×1^-3 mole, 0 min): 1 Gardner
- colour ([2]; equimolecular, 1.55×1^-3 mole, 6 min): 2 Gardner
- colour ([2]; equimolecular, 1.55×1^-3 mole, 12 min): 3 Gardner
- colour ([2]; equimolecular, 1.55×1^-3 mole, 18 min): 10 Gardner
- colour ([2]; equimolecular, 1.55×1^-3 mole, 24 min): 13 Gardner
- colour ([2]; equimolecular, 1.55×1^-3 mole, 27 min): 13 Gardner
- colour ([2]; equimolecular, 1.55×1^-3 mole, 30 min): 13 Gardner
- colour ([2]; equimolecular, 1.55×1^-3 mole, 33 min): 14 Gardner
- colour ([2]; equimolecular, 1.55×1^-3 mole, 36 min): 16 Gardner
- colour ([2]; equimolecular, 1.55×1^-3 mole, 39 min): 16 Gardner
- colour ([2]; equimolecular, 1.55×1^-3 mole, 42 min): B
- Coloration ([3]; Test A, after 24 hours): 6 degrees Gardner
- Coloration ([3]; Test A, time 0): 1 degrees Gardner
- Coloration ([3]; Test B, after 24 hours): 8 degrees Gardner
- Coloration ([3]; Test B, time 0): 1 degrees Gardner

SMILES: CC1=C(C(=O)OC(C)(C)C)CC(C(=O)OC(C)(C)C)=C(C)N1 [L.28510]
- colour ([1]; Ex. 10, 0.3 part, 0 min): 1 Gardner
- colour ([1]; Ex. 10, 0.3 part, 3 min): 1 Gardner
- colour ([1]; Ex. 10, 0.3 part, 6 min): 4 Gardner
- colour ([1]; Ex. 10, 0.3 part, 9 min): 5 Gardner
- colour ([1]; Ex. 10, 0.3 part, 12 min): 15 Gardner
- colour ([1]; Ex. 10, 0.3 part, 15 min): B
- colour ([2]; 0.3 part, 0 min): 1 Gardner
- colour ([2]; 0.3 part, 6 min): 1 Gardner
- colour ([2]; 0.3 part, 12 min): 2 Gardner
- colour ([2]; 0.3 part, 18 min): 4 Gardner
- colour ([2]; 0.3 part, 24 min): 10 Gardner
- colour ([2]; 0.3 part, 27 min): 18 Gardner
- colour ([2]; 0.3 part, 30 min): 18 Gardner
- colour ([2]; 0.3 part, 33 min): 19 Gardner
- colour ([2]; 0.3 part, 36 min): 19 Gardner
- colour ([2]; 0.3 part, 39 min): B

SMILES: CCCCCCCCCCCCCCCCCCCCCCOC(=O)C1=C(C)NC(C)=C(C(=O)OCCCCCCCCCCCCCCCCCCCCCC)C1 [L.28601]
- colour ([1]; x = 0.1 to 0.3 p.c.r., 0 min): 1 Gardner
- colour ([1]; x = 0.1 to 0.3 p.c.r., 3 min): 1 Gardner
- colour ([1]; x = 0.1 to 0.3 p.c.r., 6 min): 2 Gardner
- colour ([1]; x = 0.1 to 0.3 p.c.r., 9 min): 2 Gardner
- colour ([1]; x = 0.1 to 0.3 p.c.r., 12 min): 4 Gardner
- Coloration ([3]; Test A, after 24 hours): 1 degrees Gardner
- Coloration ([3]; Test A, time 0): 1 degrees Gardner

SMILES: CCCOC(=O)C1=C(C)NC(C)=C(C(=O)OCCC)C1 [L.28509]
- colour ([1]; Ex. 10, 0.3 part, 0 min): 1 Gardner
- colour ([1]; Ex. 10, 0.3 part, 3 min): 1 Gardner
- colour ([1]; Ex. 10, 0.3 part, 6 min): 2 Gardner
- colour ([1]; Ex. 10, 0.3 part, 9 min): 4 Gardner
- colour ([1]; Ex. 10, 0.3 part, 12 min): 4 Gardner
- colour ([1]; Ex. 10, 0.3 part, 15 min): 17 Gardner
- colour ([1]; Ex. 10, 0.3 part, 18 min): B
- colour ([2]; 0.3 part, 0 min): 1 Gardner
- colour ([2]; 0.3 part, 6 min): 1 Gardner
- colour ([2]; 0.3 part, 12 min): 2 Gardner
- colour ([2]; 0.3 part, 18 min): 3 Gardner
- colour ([2]; 0.3 part, 24 min): 5 Gardner
- colour ([2]; 0.3 part, 27 min): 9 Gardner
- colour ([2]; 0.3 part, 30 min): 9 Gardner
- colour ([2]; 0.3 part, 33 min): 11 Gardner
- colour ([2]; 0.3 part, 36 min): 13 Gardner
- colour ([2]; 0.3 part, 39 min): 14 Gardner
- colour ([2]; 0.3 part, 42 min): 15 Gardner

SMILES: CCCCCCCCCCCCCCCCCCOC(=O)C1=C(C)NC(C)=C(C(=O)OCCCCCCCCCCCCCCCCCC)C1 [L.28599, 2,6-Dimethyl-3,5-dicarbooctadecyloxy-1,4-dihydropyridine]
- colour ([1]; 0.2 p.c.r., 0 min): 1 Gardner
- colour ([1]; 0.2 p.c.r., 2 min): < 2 Gardner
- colour ([1]; 0.2 p.c.r., 6 min): 2 Gardner
- colour ([1]; 0.2 p.c.r., 8 min): 3 Gardner
- colour ([1]; 0.2 p.c.r., 10 min): 3 Gardner
- colour ([1]; 0.2 p.c.r., 12 min): 10.5 Gardner
- colour ([1]; 0.2 p.c.r., 14 min): 14 Gardner
- colour ([1]; 0.2 p.c.r., time printed 1 min): < 2 Gardner
- colour ([1]; x = 0.1 to 0.3 p.c.r., 0 min): 1 Gardner
- colour ([1]; x = 0.1 to 0.3 p.c.r., 3 min): 1 Gardner
- colour ([1]; x = 0.1 to 0.3 p.c.r., 6 min): 1 Gardner
- colour ([1]; x = 0.1 to 0.3 p.c.r., 9 min): 2 Gardner
- colour ([1]; x = 0.1 to 0.3 p.c.r., 12 min): 4 Gardner
- colour ([1]; x = 0.1 to 0.3 p.c.r., 15 min): 13 Gardner
- Coloration ([3]; Test A, after 24 hours): 1 degrees Gardner
- Coloration ([3]; Test A, time 0): 1 degrees Gardner

SMILES: CCCCOC(=O)C1=C(C)NC(C)=C(C(=O)OCCCC)C1 [L.28552, 2,6-Dimethyl-3,5-dicarbobutoxy-1,4-dihydropyridine]
- colour ([1]; Ex. 10, 0.3 part, 0 min): 1 Gardner
- colour ([1]; Ex. 10, 0.3 part, 3 min): 1 Gardner
- colour ([1]; Ex. 10, 0.3 part, 6 min): 2 Gardner
- colour ([1]; Ex. 10, 0.3 part, 9 min): 4 Gardner
- colour ([1]; Ex. 10, 0.3 part, 12 min): 11 Gardner
- colour ([1]; Ex. 10, 0.3 part, 15 min): 12 Gardner
- colour ([1]; Ex. 10, 0.3 part, 18 min): B

“And” between values parts separate entries of the source, which are not always exact repeats. Identical values can stand only once.
